The list shows a part of the results. Repeats are few or missing, and single values can be far off.

The subject of the test is Saccharomyces cerevisiae BY4743. Put plainly: growth (OD600) with compound + IPBC relative to untreated control; higher = less growth inhibition. As to conditions: compound concentration: 133 uM; IPBC concentration: 0.5 ug/ml; 20 h. The procedure:
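NMCCC compounds (133 uM) combined with IPBC (0.5 ug/ml) against Saccharomyces cerevisiae BY4743 in YPD, 96-well plates. Growth was read as OD600 at 20 h and expressed as % of the untreated control. Single pass.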
On to `CNS(=O)(=O)c1cc(C(=O)N2CCN(S(=O)(=O)c3cc(OC)ccc3OC)CC2)n(C)c1` + CCCCNC(=O)OCC#CI [3-iodo-2-propynyl butylcarbamate (IPBC)], for which the growth was 97.7%.

With `COC(=O)c1cccc2c1CCCN2Cc1ncc(C(C)(C)C)o1` + CCCCNC(=O)OCC#CI [3-iodo-2-propynyl butylcarbamate (IPBC)], the growth came out at 98.6%.

As to `CC(C)(C)c1ccc2oc(=O)n(C(=O)COc3ccc(F)cc3)c2c1` + CCCCNC(=O)OCC#CI [3-iodo-2-propynyl butylcarbamate (IPBC)], the growth is 97.7%.

For `COc1ccc(CCNc2cc(-c3ccccc3)ncn2)cc1OC` + CCCCNC(=O)OCC#CI [3-iodo-2-propynyl butylcarbamate (IPBC)], the growth is 87.8%.

Consider `CCCOc1ccc(CNC(=O)Cn2c(=O)oc3ccccc32)cc1` + CCCCNC(=O)OCC#CI [3-iodo-2-propynyl butylcarbamate (IPBC)], for which the growth worked out at 98.2%.

Consider `Cc1ccc(CNn2nnnc2N)s1` + CCCCNC(=O)OCC#CI [3-iodo-2-propynyl butylcarbamate (IPBC)], for which the growth turned out to be 85.7%.

Consider `CCOC(=O)c1ccc(CSc2nc[nH]n2)o1` + CCCCNC(=O)OCC#CI [3-iodo-2-propynyl butylcarbamate (IPBC)], for which the growth came out at 91.1%.

As to `CCOC(=O)Cc1c(O)nc2ccc(C)cc2c1-c1ccccc1` + CCCCNC(=O)OCC#CI [3-iodo-2-propynyl butylcarbamate (IPBC)], the growth came to 111%.

The record behind these values is the supplement of paper PMC8007513.
